Measured values: paper PMC6152025, “Inhibitors of the Detoxifying Enzyme of the Phytoalexin Brassinin Based on Quinoline and Isoquinoline Scaffolds” (Molecules : A Journal of Synthetic Chemistry and Natural …, 2017)

The compounds below were run on T1, brassinin oxidase (BOLm) (assay: HPLC-DAD of indole-3-carboxaldehyde formed, cell-free extract). Conditions: 0.10 mM brassinin, 0.10 mM PMS, pH ~8.3, 24 °C.
T1 construct: native enzyme, not purified; dialyzed cell-free mycelial protein extract, induced by 3-phenylindole; never expressed heterologously
Assay type: biochemical, Leptosphaeria maculans

| Structure (SMILES) | % Inhibition ^b / 0.30 mM [%] |
| --- | --- |
| Oc1ccc2nc(-c3ccccc3)ccc2c1 [5e, 6-Hydroxy-2-phenylquinoline] | 22 ± 1 |
| c1ccc(-c2cnc3ccccc3c2)cc1 [6a, 3-Phenylquinoline] | 30 ± 4 |
| Oc1ccc2ncc(-c3ccccc3)cc2c1 [6e, 6-Hydroxy-3-phenylquinoline] | 34 ± 2 |
| COc1ccc2ncc(-c3ccccc3)cc2c1 [6f, 6-Methoxy-3-phenylquinoline] | 40 ± 3 |
| Cc1ccc2ncc(-c3ccccc3)cc2c1 [6g, 6-Methyl-3-phenylquinoline] | 32 ± 3 |
| c1ccc(-c2ccc3ncccc3c2)cc1 [7a, 6-Phenylquinoline] | 36 ± 2 |
| Cc1cnc2ccc(-c3ccccc3)cc2c1 [7c, 3-Methyl-6-phenylquinoline] | 33 ± 6 |
| CCc1cnc2ccc(-c3ccccc3)cc2c1 [7d, 3-Ethyl-6-phenylquinoline] | 64 ± 5 |
| CC(C)c1cnc2ccc(-c3ccccc3)cc2c1 [7e, 3-Isopropyl-6-phenylquinoline] | 33 ± 5 |
| c1ccc(-c2ccc3nc(-c4ccccc4)ccc3c2)cc1 [7f, 2,6-Diphenylquinoline] | 19 ± 1 |
| c1ccc(-c2ccc3ncc(-c4ccccc4)cc3c2)cc1 [7g, 3,6-Diphenylquinoline] | 25 ± 1 |
